Results: publication PMC11959276
No constants are given. Whether binding was seen depends on the method and setting. In cells and extracts the contact can be indirect. Some results given as binding are weak or reduced against the parent protein; the word gives no strength.

The chains behind the UniProt entries cited, without tags or fusion partners. Residues count along the entry.
UniProt P27773, residues 25-505: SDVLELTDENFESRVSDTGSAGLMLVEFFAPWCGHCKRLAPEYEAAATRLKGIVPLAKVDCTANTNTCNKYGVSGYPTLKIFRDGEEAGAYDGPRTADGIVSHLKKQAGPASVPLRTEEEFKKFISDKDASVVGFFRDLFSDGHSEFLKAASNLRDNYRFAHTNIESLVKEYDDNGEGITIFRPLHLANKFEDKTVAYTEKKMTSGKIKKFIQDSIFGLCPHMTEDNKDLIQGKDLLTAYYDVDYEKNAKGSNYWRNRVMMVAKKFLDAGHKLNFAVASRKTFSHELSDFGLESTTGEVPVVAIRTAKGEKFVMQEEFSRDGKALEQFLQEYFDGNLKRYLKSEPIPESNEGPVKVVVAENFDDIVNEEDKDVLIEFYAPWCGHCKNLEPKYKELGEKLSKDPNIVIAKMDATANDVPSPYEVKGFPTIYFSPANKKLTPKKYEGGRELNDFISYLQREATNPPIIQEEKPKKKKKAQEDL

Molecular target: human Tapasin isoform 1 (human) (UniProt O15533)
Assay: co-IP; 1% NP-40 lysate of Tapasin-/- fibroblasts expressing human Tapasin isoforms or vector alone; Tapasin precipitated with PaSta.1 anti-human Tapasin monoclonal and Protein G sepharose overnight; blot with rabbit anti-ERp57

binding: binds
Substance: mouse ERp57 (from UniProt P27773 25-505)
